PubChem BioAssay AID1224829 – NIAID | 2016

- Aim: 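Genes needed for LPS-driven NF-kappaB p65 nuclear entry in mouse macrophages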 (follow-up of hits)
- Cells: mouse RAW264.7 G9 macrophage reporter cells
- Reagent: single siRNA against mouse genes, 100 nM
- Timing: 2 days of siRNA knock-down, then 40 min of LPS before fixing
- Treatment: LPS (Salmonella minnesota R595) at 10 ng/ml
- Detection: 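High-content images after 40 min LPS exposure; GFP-p65 nucleus to surrounding ring signal ratio, normalised to plate median and non-targeting control wells, expressed as z-score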
- Scale: p65 translocation z-score and gene median z-score, per vendor: higher = more nuclear NF-kappaB p65 after LPS
- Active means: 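An siRNA is called active when the mean z-score of its two replicates is above 2 or below -2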
- Meaning of the calls: active = changed p65 translocation (either direction); inactive = no clear change
The deposit covers about 3,800 reagents; shown is a part drawn at random. 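Calls cover raised and lowered translocation; gene median uses one vendor's three siRNAs; qiagen siRNAs acted more weakly than ambion siRNAs.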 The numbers tell different reagents against one gene apart.

no.	gene	reagent	siRNA vendor or control pool	p65 translocation z-score, replicate mean	p65 translocation z-score, replicate 1	p65 translocation z-score, replicate 2	gene median z-score, per vendor	Outcome
1	Plgrkt	1	ambion single siRNA	-4.43	-4.44	-4.42	-4.96	active
2	Plgrkt	2	ambion single siRNA	-5.6	-6.96	-4.23	-4.96	active
3	Plgrkt	3	ambion single siRNA	-7.39	-9.3	-5.48	-4.96	active
4	Plgrkt	4	qiagen single siRNA	1.37	0.122	2.62	0.878	inactive
5	Plgrkt	5	qiagen single siRNA	-1.17	-0.837	-1.49	0.878	inactive
6	Plgrkt	6	qiagen single siRNA	2.75	1.63	3.86	0.878	active
7	Scamp5	1	ambion single siRNA	4.04	5.23	2.86	-0.546	active
8	Scamp5	2	ambion single siRNA	-0.546	-1.16	0.0725	-0.546	inactive
9	Scamp5	3	ambion single siRNA	-4.15	-3.58	-4.72	-0.546	active
10	Scamp5	4	qiagen single siRNA	0.454	-0.775	1.68	0.0183	inactive
11	Scamp5	5	qiagen single siRNA	-1.83	-4.53	0.865	0.0183	inactive
12	Scamp5	6	qiagen single siRNA	0.0183	-0.394	0.431	0.0183	inactive
13	P2ry4	1	ambion single siRNA	0.107	-0.277	0.49	0.421	inactive
14	P2ry4	2	ambion single siRNA	0.694	0.352	1.04	0.421	inactive
15	P2ry4	3	ambion single siRNA				0.421	inactive
16	P2ry4	4	qiagen single siRNA	0.909	1.02	0.801	-2.33	inactive
17	P2ry4	5	qiagen single siRNA	-2.56	-2.33	-2.79	-2.33	active
18	P2ry4	6	qiagen single siRNA	-2.81	-2.32	-3.3	-2.33	active
19	Mgat4b	1	ambion single siRNA	-0.0869	0.564	-0.738	-1.1	inactive
20	Mgat4b	2	ambion single siRNA	-4.41	-6.24	-2.59	-1.1	active
21	Mgat4b	3	ambion single siRNA	-0.813	-0.162	-1.46	-1.1	inactive
22	Mgat4b	4	qiagen single siRNA	1.59	-0.676	3.86	-0.785	inactive
23	Mgat4b	5	qiagen single siRNA	-2.43	-0.894	-3.96	-0.785	active
24	Mgat4b	6	qiagen single siRNA	-0.595	-1.45	0.258	-0.785	inactive
25	Rab24	1	ambion single siRNA	-1.43	-1.6	-1.26	-2.13	inactive
26	Rab24	2	ambion single siRNA	-2.24	-1.34	-3.15	-2.13	active
27	Rab24	3	ambion single siRNA	-2.99	-2.65	-3.33	-2.13	active
28	Rab24	4	qiagen single siRNA	3.21	2.8	3.62	-0.717	active
29	Rab24	5	qiagen single siRNA	-1.97	-2.87	-1.06	-0.717	inactive
30	Rab24	6	qiagen single siRNA	-2.17	-0.369	-3.98	-0.717	active
31	Ap1g2	1	ambion single siRNA	-1.83	-2.61	-1.04	-3.24	inactive
32	Ap1g2	2	ambion single siRNA	-3.22	-4.2	-2.25	-3.24	active
33	Ap1g2	3	ambion single siRNA	-4.61	-5.35	-3.88	-3.24	active
34	Ap1g2	4	qiagen single siRNA	0.636	0.296	0.977	-1.95	inactive
35	Ap1g2	5	qiagen single siRNA	-2.88	-2.78	-2.98	-1.95	active
36	Ap1g2	6	qiagen single siRNA	-1.95	-1.44	-2.46	-1.95	inactive
37	Slc5a6	1	ambion single siRNA	-1.26	-1.9	-0.627	-3.66	inactive
38	Slc5a6	2	ambion single siRNA	-3.66	-4.69	-2.64	-3.66	active
39	Slc5a6	3	ambion single siRNA	-6.81	-7.01	-6.6	-3.66	active
40	Slc5a6	4	qiagen single siRNA	2.33	2.33		1.68	active
41	Slc5a6	5	qiagen single siRNA	1.65	1.76	1.54	1.68	inactive
42	Slc5a6	6	qiagen single siRNA	-0.54	-2.76	1.68	1.68	inactive
43	Arpc2	1	qiagen single siRNA	-0.13	-0.837	0.576	-0.672	inactive
44	Arpc2	2	qiagen single siRNA	-0.779	-0.909	-0.648	-0.672	inactive
45	Arpc2	3	qiagen single siRNA	-0.589	-0.483	-0.696	-0.672	inactive
46	Cadm1	1	ambion single siRNA	-5.6	-6.5	-4.7	-4.7	active
47	Cadm1	2	ambion single siRNA	-2.14	-1.83	-2.44	-4.7	active
48	Cadm1	3	ambion single siRNA	-7.87	-7.87		-4.7	active
49	Cadm1	4	qiagen single siRNA	3.53	2.52	4.53	2.57	active
50	Cadm1	5	qiagen single siRNA	3.21	2.62	3.79	2.57	active
51	Cadm1	6	qiagen single siRNA	0.806	0.235	1.38	2.57	inactive

Copied from the list:
Under “gene median z-score, per vendor”, Scamp5 #4, siRNA vendor or control pool qiagen single siRNA shows 0.0183
Result of Scamp5 #5, siRNA vendor or control pool qiagen single siRNA under “Outcome”: inactive
For “gene median z-score, per vendor”, Ap1g2 #3, siRNA vendor or control pool ambion single siRNA has -3.24
For “Outcome”, Ap1g2 #5, siRNA vendor or control pool qiagen single siRNA is entered as active
